{
  "source": "paper PMC7593347",
  "about": "(International Journal for Parasitology: Drugs and Drug …, 2020)",
  "assay_type_in_all_cases": "cell-based",
  "key": {"C. parvum HNJ-1 strain": {"test_system": "C. parvum HNJ-1 strain", "test": "Initial epigenetic library compound screening for C. parvum", "conditions": "Cryptosporidium parvum, HCT-8, 48 h, read-out: Parasite inhibition (%) (primary screening)"}, "C. parvum": {"test_system": "C. parvum", "conditions": "Cryptosporidium parvum, HCT-8, 48 h, read-out: Parasite inhibition (%)"}, "HCT-8 cells": {"test_system": "HCT-8 cells", "test": "Cytotoxicity to HCT-8 cells", "conditions": "Homo sapiens, HCT-8, 48 h, read-out: Host cell IC50"}},
  "data": [
    {"molecule": "O=C(CCCCCCC(=O)Nc1ccccc1)NO", "note": "[SAHA]", "values": [
      {"measurement": "inhibition at 5 µM", "setting": "C. parvum HNJ-1 strain", "value": 100, "unit": "%"},
      {"measurement": "inhibition at 5 µM", "setting": "C. parvum", "value": "-0.8 ± 5.8", "unit": "%"},
      {"measurement": "IC50", "setting": "HCT-8 cells", "value": "2500 ± 300", "unit": "nM"}
    ]}
  ]
}
